These results are taken from paper PMC4223716.

The target of this assay is T1, vascular endothelial cadherin (human (endogenous in HUVEC)), P33151.
T1 chain: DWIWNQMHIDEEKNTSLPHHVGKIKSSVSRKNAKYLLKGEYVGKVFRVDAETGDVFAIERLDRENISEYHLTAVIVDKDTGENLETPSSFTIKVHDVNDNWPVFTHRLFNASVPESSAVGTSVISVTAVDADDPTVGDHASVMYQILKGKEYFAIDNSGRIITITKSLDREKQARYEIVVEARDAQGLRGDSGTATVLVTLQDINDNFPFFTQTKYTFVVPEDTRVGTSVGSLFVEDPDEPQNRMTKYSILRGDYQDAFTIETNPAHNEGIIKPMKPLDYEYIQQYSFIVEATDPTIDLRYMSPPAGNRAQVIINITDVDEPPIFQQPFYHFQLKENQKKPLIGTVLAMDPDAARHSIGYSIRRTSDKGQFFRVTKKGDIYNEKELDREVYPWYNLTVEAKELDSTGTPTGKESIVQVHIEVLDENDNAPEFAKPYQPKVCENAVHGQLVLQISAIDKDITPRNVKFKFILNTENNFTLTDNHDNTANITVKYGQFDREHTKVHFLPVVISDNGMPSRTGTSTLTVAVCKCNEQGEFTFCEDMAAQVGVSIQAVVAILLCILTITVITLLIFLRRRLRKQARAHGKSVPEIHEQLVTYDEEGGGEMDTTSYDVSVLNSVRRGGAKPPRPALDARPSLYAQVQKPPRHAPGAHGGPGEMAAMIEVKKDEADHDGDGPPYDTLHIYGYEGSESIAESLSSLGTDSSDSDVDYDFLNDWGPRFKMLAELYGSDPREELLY
The assay can be described thus: co-IP; VE-cad antibody immunoprecipitation from HUVEC RIPA lysates (overnight at 4°C, protein A-agarose), blot for β-catenin and VE-cad; mIgG as control; cells without high glucose; also cells overexpressing DN-PKC-α, -β or -δ (Figure 3D). The settings on record: remark: other sources report otherwise.

These are yes or no findings as the source states them, for the method shown. Binding seen in cells or lysates may run through a third protein. Some results given as binding are weak or reduced against the parent protein; the word gives no strength.

B1: β-catenin, P35222 1-781 (protein)
chain: MATQADLMELDMAMEPDRKAAVSHWQQQSYLDSGIHSGATTTAPSLSGKGNPEEEDVDTSQVLYEWEQGFSQSFTQEQVADIDGQYAMTRAQRVRAAMFPETLDEGMQIPSTQFDAAHPTNVQRLAEPSQMLKHAVVNLINYQDDAELATRAIPELTKLLNDEDQVVVNKAAVMVHQLSKKEASRHAIMRSPQMVSAIVRTMQNTNDVETARCTAGTLHNLSHHREGLLAIFKSGGIPALVKMLGSPVDSVLFYAITTLHNLLLHQEGAKMAVRLAGGLQKMVALLNKTNVKFLAITTDCLQILAYGNQESKLIILASGGPQALVNIMRTYTYEKLLWTTSRVLKVLSVCSSNKPAIVEAGGMQALGLHLTDPSQRLVQNCLWTLRNLSDAATKQEGMEGLLGTLVQLLGSDDINVVTCAAGILSNLTCNNYKNKMMVCQVGGIEALVRTVLRAGDREDITEPAICALRHLTSRHQEAEMAQNAVRLHYGLPVVVKLLHPPSHWPLIKATVGLIRNLALCPANHAPLREQGAIPRLVQLLVRAHQDTQRRTSMGGTQQQFVEGVRMEEIVEGCTGALHILARDVHNRIVIRGLNTIPLFVQLLYSPIENIQRVAAGVLCELAQDKEAAEAIEAEGATAPLTELLHSRNEGVATYAAAVLFRMSEDKPQDYKKRLSVELTSSLFRTEPMAWNETADLGLDIGAQGEPLGYRQDDPSYRSFHSGGYGQDALGMDPMMEHEMGGHHPGADYPVDGLPDLGHAQDLMDGLPPGDSNQLAWFDTDL
Regarding B1, the binding entry was “binds”.
